The target of assay [1] is T1, MvaT 79-124-His (P. aeruginosa) (UniProt Q9HW86).
T1 sequence: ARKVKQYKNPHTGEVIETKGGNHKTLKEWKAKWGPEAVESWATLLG
The experiment in a line: pull-down; His-tagged MvaT fragment (40 uM) and gp4 (40 uM) on High-Density Nickel Agarose; 100 mM NaCl, 10 mM Tris-HCl pH 7.2, 50 mM imidazole, 20 mM MgCl2; six washes, elution with 1.5 M imidazole, tricine gel; both purified.

The target in assay [2] is T2, MvaT 1-62-His (P. aeruginosa) (UniProt Q9HW86).
T2 sequence: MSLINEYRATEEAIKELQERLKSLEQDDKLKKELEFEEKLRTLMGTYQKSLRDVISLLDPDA
Described as above.

For assay [3], the target named is gp4 of Pseudomonas phage LUZ24 (Pseudomonas phage LUZ24). In words: NMR titration; 15N gp4 titrated with unlabelled MvaT2 (gp4:MvaT 1.2:1) or unlabelled DBD (gp4:DBD up to 1:3); HSQC spectra; both purified.

Two molecules from paper PMC8501957 can be followed below.

These are yes or no findings as the source states them, for the method shown. For part of these data: Binding can be weak; no strength is given. Sequences can lack the tags named with a protein.

Turning to gp4 of Pseudomonas phage LUZ24, the binding entry in assay [1] is “no binding (tested: 40 uM each)”; in assay [2] it was “binds”.
With ARKVKQYKNPHTGEVIETKGGNHKTLKEWKAKWGPEAVESWATLLG (domain or fragment, UniProt Q9HW86 79-124) [MvaT 79-124-His], in assay [3], the binding result is “no binding (tested: molar ratio of gp4:DBD of 1:3)”.
